According to patent US6995178B2, “Insecticidal anthranilamides” (E. I. du Pont de Nemours and Company, priority 2000, dated 2006):
Some results were stated once for a whole list of compounds, not compound by compound. Some compounds share one range, which may span the group rather than tell each member.

System: Diamondback Moth (DBM)—Plutella Xylostella
Experiment: Diamondback Moth (DBM) plant feeding damage test on radish plants
Assay type: in vivo
Conditions: sprayed at 250 ppm, 1 mL per test unit, 12-14 day old radish plant pre-infested with 10-15 neonate larvae, held 6 days at 25° C. and 70% relative humidity, replicated three times

| SMILES | Plant feeding damage visually assessed on a scale of 0-10 (excellent levels of plant protection: ratings of 0-1, 10% or less feeding damage) |
| --- | --- |
| Cc1cccc(C(=O)NC(C)C)c1NC(=O)c1ccc(Br)cc1C(=O)N1CCCCC1 [Compound 212] | 0-1 |
| Cc1cccc(C(=O)NC(C)C)c1NC(=O)c1ccc(C(F)(F)F)nc1C(C)C [Compound B47] | 0-1 |
| Cc1nc(C(F)(F)F)ccc1C(=O)Nc1c(C(=O)NC(C)(C)C)cccc1C(F)(F)F [Compound B21] | 0-1 |
| Cc1cccc(C(=O)NC(C)C)c1NC(=O)c1cc(C(F)(F)F)nn1-c1ccnc2ccccc12 [Compound D92] | 0-1 |
| Cc1cc(C(F)(F)F)ccc1C(=O)Nc1c(Cl)cccc1C(=O)NC(C)(C)C [Compound 124] | 0-1 |
| Cc1cc(C(F)(F)F)ccc1C(=O)Nc1c(Cl)ccc(Cl)c1C(=O)NC(C)C [Compound 257] | 0-1 |
| Cc1cc(C(F)(F)F)ccc1C(=O)Nc1c(C)cccc1C(=O)NC1CC1 [Compound 206] | 0-1 |
| Cc1cccc(C(=O)NC(C)(C)C)c1NC(=O)c1ccc(C(F)(F)C(F)(F)F)nc1C [Compound B18] | 0-1 |
| Cc1cccc(C(=O)NC(C)C)c1NC(=O)c1ccc(C(F)(F)F)nc1C#N [Compound B71] | 0-1 |
| CC(C)NC(=O)c1cccc(I)c1NC(=O)c1cc(C(F)(F)F)nn1-c1ccccc1 [Compound D25] | 0-1 |
| CC(C)NC(=O)c1cccc(Br)c1NC(=O)c1cc(C(F)(F)F)nn1-c1ccccc1 [Compound D28] | 0-1 |
| COCC(C)NC(=O)c1cccc(Cl)c1NC(=O)c1ccc(C(F)(F)F)cc1C (stereo not shown) [Compound 100] | 0-1 |
| Cc1ccn(-c2cc(C(F)(F)F)ccc2C(=O)Nc2c(C)cccc2C(=O)NC(C)C)n1 [Compound 222] | 0-1 |
| CCC(C)NC(=O)c1cccc(C)c1NC(=O)c1ccc(C(F)(F)F)cc1 (stereo not shown) [Compound 126] | 0-1 |
| CC(C)NC(=O)c1cccc(C(F)(F)F)c1NC(=O)c1ccc(C(F)(F)F)cc1 [Compound 88] | 0-1 |
| Cc1nc(C(F)(F)F)ccc1C(=O)Nc1cccc(F)c1C(=O)NC(C)C [Compound B33] | 0-1 |
| Cc1cc(C(=O)Nc2c(I)cccc2C(=O)NC(C)C)n(-c2ccccc2)n1 [Compound D20] | 0-1 |
| Cc1cccc(C(=O)NC(C)C)c1NC(=O)c1cc(C(F)(F)F)nn1-c1ncccn1 [Compound D38] | 0-1 |
| Cc1cn[nH]c1C(=O)Nc1c(C)cccc1C(=O)NC(C)C [Compound D162] | 0-1 |
| Cc1cc(OC(F)(F)F)ccc1C(=O)Nc1cccc(F)c1C(=O)NC(C)C [Compound 187] | 0-1 |
| Cc1cccc(C(=O)NC(C)C)c1NC(=O)c1cc(C(F)(F)F)nn1-c1ccccc1 [Compound D19] | 0-1 |
| Cc1cccc(C(=S)NC(C)C)c1NC(=O)c1cc(C(F)(F)F)nn1-c1ccccc1 [Compound D32] | 0-1 |
